{"source": "PubChem BioAssay AID1259308 | NCATS, 2017", "aim": "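Candidate targets for better recombinant protein yield in mammalian cells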 (primary screen)", "system": "human HEK293 embryonic kidney cells stably expressing firefly luciferase (HEK-CMV-Luc2-Hygro)", "reagent": "single siRNA against human genes, 0.8 pmol siRNA per well", "timing": "72 h", "measurement": "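Reporter luminescence and viable-cell signal on separate replicate plates, given as percent of non-targeting control and median/MAD z-scores, plus per-cell luciferase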", "reading the numbers": "total luciferase, z-score and total luciferase, % of control: higher = more reporter protein produced", "call rule": "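An siRNA counts as active if its total luciferase robust z-score exceeds 3; genes with two or more such siRNAs out of three were retested with fresh siRNAs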", "calls": "active = raised luciferase; inactive = no rise", "note": "In all, the deposit lists about 59,000 reagents; below is a part drawn at random. Of all reagents, about 1,510 (2.6%) were called active. 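Calls use total luciferase alone and ignore viability, so some active siRNAs may act by altering cell number.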 Entries without a mark were called inactive. The numbers tell different reagents against one gene apart. Further read-outs or replicates are left out here."}
{"Target gene":"BAK1 (GeneID 578)","reagent no.":1,"total luciferase, z-score":-0.471,"total luciferase, % of control":72.5}
{"Target gene":"BAK1 (GeneID 578)","reagent no.":2,"total luciferase, z-score":0.64,"total luciferase, % of control":94.6}
{"Target gene":"BAK1 (GeneID 578)","reagent no.":3,"total luciferase, z-score":-0.739,"total luciferase, % of control":67.2}
{"Target gene":"SERINC3 (GeneID 10955)","reagent no.":1,"total luciferase, z-score":-0.737,"total luciferase, % of control":67.2}
{"Target gene":"SERINC3 (GeneID 10955)","reagent no.":2,"total luciferase, z-score":-0.77,"total luciferase, % of control":66.6}
{"Target gene":"SERINC3 (GeneID 10955)","reagent no.":3,"total luciferase, z-score":0.576,"total luciferase, % of control":93.3}
{"Target gene":"NIM1K (GeneID 167359)","reagent no.":1,"total luciferase, z-score":2.62,"total luciferase, % of control":134}
{"Target gene":"NIM1K (GeneID 167359)","reagent no.":2,"total luciferase, z-score":0.842,"total luciferase, % of control":98.6}
{"Target gene":"NIM1K (GeneID 167359)","reagent no.":3,"total luciferase, z-score":2.91,"total luciferase, % of control":140}
{"Target gene":"CHPT1 (GeneID 56994)","reagent no.":1,"total luciferase, z-score":-0.781,"total luciferase, % of control":66.4}
{"Target gene":"CHPT1 (GeneID 56994)","reagent no.":2,"total luciferase, z-score":-0.182,"total luciferase, % of control":78.3}
{"Target gene":"CHPT1 (GeneID 56994)","reagent no.":3,"total luciferase, z-score":0.673,"total luciferase, % of control":95.3}

2 neighbouring records already listed:
{"Target gene":"SERINC3 (GeneID 10955)","reagent no.":2,"total luciferase, z-score":-0.77,"total luciferase, % of control":66.6}
{"Target gene":"SERINC3 (GeneID 10955)","reagent no.":3,"total luciferase, z-score":0.576,"total luciferase, % of control":93.3}

Additional results follow.
{"Target gene":"LSM10 (GeneID 84967)","reagent no.":1,"total luciferase, z-score":-0.204,"total luciferase, % of control":77.8}
{"Target gene":"LSM10 (GeneID 84967)","reagent no.":2,"total luciferase, z-score":-1.66,"total luciferase, % of control":48.8}
{"Target gene":"LSM10 (GeneID 84967)","reagent no.":3,"total luciferase, z-score":-0.787,"total luciferase, % of control":66.2}
{"Target gene":"KCNQ3 (GeneID 3786)","reagent no.":1,"total luciferase, z-score":0.662,"total luciferase, % of control":95.1}
{"Target gene":"KCNQ3 (GeneID 3786)","reagent no.":2,"total luciferase, z-score":0.0348,"total luciferase, % of control":82.6}
{"Target gene":"KCNQ3 (GeneID 3786)","reagent no.":3,"total luciferase, z-score":"5.63 (active)","total luciferase, % of control":194}
{"Target gene":"METTL27 (GeneID 155368)","reagent no.":1,"total luciferase, z-score":1.15,"total luciferase, % of control":105}
{"Target gene":"METTL27 (GeneID 155368)","reagent no.":2,"total luciferase, z-score":0.145,"total luciferase, % of control":84.8}
{"Target gene":"METTL27 (GeneID 155368)","reagent no.":3,"total luciferase, z-score":-1.19,"total luciferase, % of control":58.3}
